For this test, the target named is Flag-GLUT1 (Glucose transporter type 1) (UniProt P11166). In words: co-IP; anti-Flag (GLUT1) antibody on protein A/G magnetic beads; lysates of HNE2 and CNE2 cells transfected with Flag-GLUT1 vector; GLB+ lysis buffer (150 mM NaCl, 10 mM Tris-HCl pH 7.5, 0.5% Triton X-100, 10 mM EDTA pH 8.0), 4 °C overnight; western blotting with anti-SUMO2 and anti-UBC9. For orientation: A western blot detects proteins with antibodies after separation by electrophoresis.

Chains of the proteins cited; added tags and fusions are not shown.
UniProt P11166: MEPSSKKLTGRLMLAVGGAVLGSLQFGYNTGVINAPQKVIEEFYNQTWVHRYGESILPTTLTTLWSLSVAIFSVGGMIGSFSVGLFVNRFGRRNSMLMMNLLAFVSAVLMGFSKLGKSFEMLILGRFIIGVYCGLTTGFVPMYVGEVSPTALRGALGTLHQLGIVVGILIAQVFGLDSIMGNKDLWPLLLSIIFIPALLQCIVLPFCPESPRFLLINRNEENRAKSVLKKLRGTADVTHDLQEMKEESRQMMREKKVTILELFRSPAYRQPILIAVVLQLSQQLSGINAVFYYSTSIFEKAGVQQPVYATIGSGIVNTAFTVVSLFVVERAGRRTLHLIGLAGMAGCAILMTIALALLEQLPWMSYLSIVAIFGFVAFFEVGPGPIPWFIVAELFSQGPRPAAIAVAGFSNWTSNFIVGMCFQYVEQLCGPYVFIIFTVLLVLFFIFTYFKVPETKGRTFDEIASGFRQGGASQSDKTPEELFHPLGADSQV
UniProt P63279: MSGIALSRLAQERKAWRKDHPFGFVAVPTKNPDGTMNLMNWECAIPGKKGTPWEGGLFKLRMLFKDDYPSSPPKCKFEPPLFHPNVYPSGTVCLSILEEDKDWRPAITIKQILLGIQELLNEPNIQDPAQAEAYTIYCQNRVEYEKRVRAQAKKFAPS

These are yes or no findings as the source states them, for the method shown. Binding seen in cells or lysates may run through a third protein. Some results given as binding are weak or reduced against the parent protein; the word gives no strength.

As to “Ubiquitin-Conjugating Enzyme 9 (UBC9), endogenous (from UniProt P63279 1-158)”, the binding result is on record as “binds”.

(Values after publication PMC8406723.)
